According to patent US11420994B2, “Carbon-monoxide-releasing molecules and therapeutic applications thereof” (GEORGIA STATE UNIVERSITY RESEARCH FOUNDATION, INC., priority 2016, dated 2022):
At least one structure is not confirmed: it was looked up by name or label, or the drawing left a doubt.

Experiments:
TNF-α = TNF-α ELISA in LPS treated RAW 264.7 cells pre-treated with CO prodrug; type: cell-based, mouse; conditions: pre-treated 5 h, then LPS 1 h
Experimental: RAW 264.7 cells were seeded in the 48-well plate one day before the experiment.
LPS was used to initialize the inflammatory response in RAW 264.7 cells and trigger the expression of cytokines. RAW 264.7 cells were pre-treated with different concentrations of 10b or 44b product for 5 hours. Thereafter, […] LPS was added with into the cell culture media. For TNF-α test, the cell culture supernatant was collected after 1 hour of LPS treatment. For IL-6 test, the cell culture supernatant was collected after 4 hours of LPS treatment. Cell culture without LPS treatment was used as control.
10a-10d, and 100 with different release rates were chosen to test their inhibitory effect against lipopolysaccharide (LPS) induced TNF-α secretion in RAW 264.7 cells. […] This was followed by the treatment of LPS for another 1 h. Then the cell culture supernatants were subjected to ELISA assay for TNF-α levels.

[1] = Fluorescence properties of the cycloaddition products; type: physicochemical
[2] = CO release kinetics by increase of fluorescence intensity; type: physicochemical
Experimental: Compound 10a was dissolved indifferent solvents including CH2Cl2 (25° C.), CH3CN (25° C.), DMSO (25° C.), DMSO/PBS (10:1, 25° C.), DMSO/PBS (5:1, 25° C.), and DMSO/PBS (5:1, 37° C.) to give a final concentration of around 100 μM, and CO release was monitored by fluorescence intensity at 450 nm. Each experiment was repeated three times independently. The CO release rate (first order reaction rate) in DCM, CH3CN, DMSO, DMSO/PBS (10:1), DMSO/PBS (5:1), and DMSO/PBS (5:1, 37° C.) were different and their individual rate constant was calculated to be 2.3±0.2, 3.6±0.4, 6.6±0.6, 7.7±0.6, 11.0±1.4 and 22.4±3.2 h^−1, respectively. […] The CO release rate increased along with the polarity of the solvent.

[3] = of the cycloaddition products 44a-44f and 100a

Q: For `C#CCCN(CCOC1OC(CO)C(O)C(O)C1O)C(=O)C1=C2C(=C(c3ccccc3)C1=O)c1cccc3cccc2c13` (centres unmarked) [Compound 100], which “LPS-induced TNF-α expression / secretion” value (TNF-α) is on record?
A: dose-dependently inhibited

Q: What about the λem emission wavelength [1, 3] of the same molecule?
A: 458 nm

Q: And the λex excitation wavelength [1, 3]?
A: 370 nm

Q: And the Φ quantum yield ([1]; of the cycloaddition products 44a-44f and 100a in MeOH, quinine sulfate as the standard)?
A: 0.21

Q: And the “increase of CO release rate in 99% aqueous solution compared to DMSO/PBS (5:1)” value ([2]; 1% of DMSO in PBS)?
A: around 11 fold

Q: What about the “k CO release rate” value ([2]; 1% of DMSO in PBS (pH = 7.4)) of the same molecule?
A: 3.8 ± 0.12 h⁻¹

Q: What about the “decrease of CO release rate compared to 10b” value ([2]; DMSO/PBS 5:1, 37° C.) of the same molecule?
A: around 1 fold

Q: And the “k CO release rate” value ([2]; DMSO/PBS (pH = 7.4) 5:1 at 37° C.)?
A: 0.33 ± 0.01 h⁻¹
